These are yes or no findings as the source states them, for the method shown. In cells and extracts the contact can be indirect. A result given as binding can be weak or reduced; the word gives no strength. Sequences can lack the tags named with a protein.

Sequences of proteins named here, by UniProt entry; tags and fusion partners are left off. A change or cut given only in a name is not applied to a line headed by its entry.
UniProt Q76MZ3: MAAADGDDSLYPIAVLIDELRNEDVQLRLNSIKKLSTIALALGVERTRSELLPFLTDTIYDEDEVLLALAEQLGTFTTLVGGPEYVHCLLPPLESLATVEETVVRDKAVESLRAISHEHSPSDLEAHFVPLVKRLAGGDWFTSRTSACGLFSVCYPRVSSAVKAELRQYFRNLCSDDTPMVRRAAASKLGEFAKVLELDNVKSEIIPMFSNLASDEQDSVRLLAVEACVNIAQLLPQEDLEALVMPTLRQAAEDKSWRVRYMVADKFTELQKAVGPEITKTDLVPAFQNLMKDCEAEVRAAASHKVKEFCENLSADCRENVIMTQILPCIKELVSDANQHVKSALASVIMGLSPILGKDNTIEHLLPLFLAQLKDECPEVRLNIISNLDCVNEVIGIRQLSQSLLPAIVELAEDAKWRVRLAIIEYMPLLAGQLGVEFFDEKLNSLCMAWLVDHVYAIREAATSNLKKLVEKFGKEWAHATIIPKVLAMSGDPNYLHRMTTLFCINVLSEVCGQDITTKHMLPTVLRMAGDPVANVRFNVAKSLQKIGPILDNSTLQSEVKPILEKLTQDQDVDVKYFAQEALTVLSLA

This assay concerns the target T1, FLAG Foxi3 FL 1–399 (mouse) (UniProt D3Z120).
T1 sequence: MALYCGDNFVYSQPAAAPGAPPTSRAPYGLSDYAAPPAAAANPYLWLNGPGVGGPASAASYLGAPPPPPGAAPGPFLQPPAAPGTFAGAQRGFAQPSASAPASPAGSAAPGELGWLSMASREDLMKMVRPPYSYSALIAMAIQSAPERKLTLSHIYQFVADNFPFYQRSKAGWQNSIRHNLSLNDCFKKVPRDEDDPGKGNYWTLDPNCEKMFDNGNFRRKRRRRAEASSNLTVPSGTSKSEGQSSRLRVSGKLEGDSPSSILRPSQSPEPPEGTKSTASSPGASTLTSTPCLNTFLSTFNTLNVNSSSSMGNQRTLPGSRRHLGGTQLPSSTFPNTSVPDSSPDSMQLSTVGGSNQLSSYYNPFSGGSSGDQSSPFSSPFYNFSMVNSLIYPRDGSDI
In words: co-IP; Myc-tagged PP2A subunits co-transfected with FLAG Foxi3 in HEK-293T; anti-Flag M2 magnetic beads, 500 µg lysate, overnight at 4 °C, CoIP lysis buffer (Tris-HCl 25 mM pH 7.5, NaCl 150 mM, EDTA 1 mM, NP-40 1%, glycerol 5%, DTT 1 mM, phosphatase inhibitors); blot with MYC antibody.

“Myc-tagged PPP2R1A (from UniProt Q76MZ3)”: the binding result is “binds”.

The values are drawn from paper PMC6250667.
